# Assay results taken from paper PMC5323203.
# Protein sequences, listed by entry. Tags and fused reporters are not part of them.
# UniProt P58462: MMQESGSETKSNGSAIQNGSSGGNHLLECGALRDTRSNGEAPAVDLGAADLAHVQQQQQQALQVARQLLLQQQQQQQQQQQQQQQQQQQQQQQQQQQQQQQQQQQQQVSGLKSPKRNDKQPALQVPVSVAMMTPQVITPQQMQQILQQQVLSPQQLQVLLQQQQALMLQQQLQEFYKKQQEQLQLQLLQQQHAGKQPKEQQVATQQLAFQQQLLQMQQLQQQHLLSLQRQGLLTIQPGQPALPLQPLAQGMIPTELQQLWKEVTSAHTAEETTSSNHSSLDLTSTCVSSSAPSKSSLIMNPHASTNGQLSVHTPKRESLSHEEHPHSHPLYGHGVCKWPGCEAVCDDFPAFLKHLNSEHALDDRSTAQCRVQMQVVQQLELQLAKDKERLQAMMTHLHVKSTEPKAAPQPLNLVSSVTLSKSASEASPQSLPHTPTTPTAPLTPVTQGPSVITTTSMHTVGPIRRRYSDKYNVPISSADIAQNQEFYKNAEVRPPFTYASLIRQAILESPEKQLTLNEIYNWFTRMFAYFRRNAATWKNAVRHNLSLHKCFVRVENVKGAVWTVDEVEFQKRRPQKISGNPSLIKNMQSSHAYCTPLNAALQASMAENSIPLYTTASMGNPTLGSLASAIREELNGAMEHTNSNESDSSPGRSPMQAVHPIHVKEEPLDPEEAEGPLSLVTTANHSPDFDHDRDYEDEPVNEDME
# UniProt Q03267: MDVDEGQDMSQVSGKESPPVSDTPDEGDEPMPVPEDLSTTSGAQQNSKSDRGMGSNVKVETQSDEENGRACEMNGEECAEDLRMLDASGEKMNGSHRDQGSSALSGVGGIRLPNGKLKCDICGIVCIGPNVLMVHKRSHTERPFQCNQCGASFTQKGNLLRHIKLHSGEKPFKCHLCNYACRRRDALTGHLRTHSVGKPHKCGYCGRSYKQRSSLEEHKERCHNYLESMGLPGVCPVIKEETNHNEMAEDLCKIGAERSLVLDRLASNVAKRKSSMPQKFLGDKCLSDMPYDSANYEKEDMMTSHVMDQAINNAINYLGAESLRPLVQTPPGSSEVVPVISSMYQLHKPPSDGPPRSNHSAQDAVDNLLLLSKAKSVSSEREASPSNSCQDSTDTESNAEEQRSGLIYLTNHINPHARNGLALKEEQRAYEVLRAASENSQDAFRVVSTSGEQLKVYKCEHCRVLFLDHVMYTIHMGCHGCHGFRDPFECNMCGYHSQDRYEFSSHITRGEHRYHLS
# These are yes or no findings as the source states them, for the method shown. In cells and extracts the contact can be indirect. Some binding calls cover weakened binding; strength is not graded here.
# Experiments:
# [1] = biological target: FLAG-tagged Foxp1 (wild type, mouse) (mouse) (UniProt P58462); experiment: co-IP; lysates of co-transfected 293T cells; IP with anti-FLAG or anti-Ikaros, immunoblot with anti-HA, anti-Ikaros or anti-FLAG; extracts treated with DNase I (no effect on the pulldowns), antibody-coupled G Dynabeads, 30 minutes at room temperature
# [2] = biological target: GST-Foxp1 fusion protein (mouse) (mouse) (UniProt P58462); experiment: pull-down; GST or GST-Foxp1 from bacterial extracts immobilised on GSH-agarose beads and washed; 1 ul of 35S-labelled in vitro translated Ikaros in 200 ul 0.02 M HEPES-KOH pH 7.9, 0.1% NP-40, 0.15 M NaCl, 1 mM DTT, 1 h at 4°C; quantified relative to input and to wild type (100%); only the target purified
# [3] = biological target: HA-tagged Ikaros (wild type, mouse) (mouse) (UniProt Q03267); experiment: co-IP; lysates of co-transfected 293T cells; IP with anti-FLAG or anti-Ikaros, immunoblot with anti-HA, anti-Ikaros or anti-FLAG; extracts treated with DNase I (no effect on the pulldowns), antibody-coupled G Dynabeads, 30 minutes at room temperature
# [4] = biological target: Ikaros (endogenous, murine fetal liver pre-B cells) (mouse (endogenous in murine fetal liver pre-B cells)) (UniProt Q03267); experiment: co-IP; lysate of wild-type murine fetal liver pre-B cells; IP with anti-Ikaros, anti-Foxp1 or control Ig, immunoblot with anti-Foxp1; extracts treated with DNase I, antibody-coupled G Dynabeads, 30 minutes at room temperature
substance,measurement,setting,value
"HA-tagged Ikaros (wild type, mouse) (from UniProt Q03267 1-517)",binding,[1],binds
"35S-labelled wild-type Ikaros (mouse, in vitro translated) (from UniProt Q03267 1-517)",binding,[2],binds
"FLAG-tagged Foxp1 (wild type, mouse) (from UniProt P58462 1-705)",binding,[3],binds
"full-length Foxp1 (Foxp1A) (endogenous, murine fetal liver pre-B cells) (from UniProt P58462 1-705)",binding,[4],binds
